Measurements published in article PMC11249239 (PLOS ONE, 2024).
Read-outs that look alike come from different tables or passages of the source.

Tests used:
Format in all cases: cell-based
HCC-1937 (TNB) cells = assay: Cell growth inhibition (CCK8 cytotoxicity assay), HCC-1937; conditions: 48 h treatment, read-out: Average EC50 ± SD, cell growth inhibition
Excerpt: (§1) Prism-GraphPad software was used to analyze data.

[1] = test system: MCF10A normal breast epithelial cells; assay: Cell growth inhibition (CCK8 cytotoxicity assay), MCF10A; conditions: Homo sapiens, MCF-10A, 48 h, 48 h treatment, read-out: Average EC50 ± SD, cell growth inhibition
Excerpt: as §1

T47D (ER+) cells = assay: Cell growth inhibition (CCK8 cytotoxicity assay), T47D; conditions: Homo sapiens, 48 h, 48 h treatment, read-out: Average EC50 ± SD, cell growth inhibition
Excerpt: as §1

MDA-MB-231 (TNB) cells = assay: Cell growth inhibition (CCK8 cytotoxicity assay), MDA-MB-231; conditions: Homo sapiens, MDA-MB-231, 48 h, 48 h treatment, read-out: Average EC50 ± SD, cell growth inhibition
Excerpt: as §1

SMILES: CC/C(=C(\c1ccccc1)c1ccc(OCCN(C)C)cc1)c1ccccc1 [Tamoxifen, reference compound]
- EC50 (HCC-1937 (TNB) cells): 1490 ± 213 nM
- EC50 (HCC-1937 (TNB) cells; Homo sapiens, HCC1937, 48 h): 1490 nM
- EC50 [1]: 15 ± 0.233 µM
- EC50 (T47D (ER+) cells): 1690 ± 218 nM
- EC50 (MDA-MB-231 (TNB) cells): 15.3 ± 1.85 µM
